# In paper PMC7188950:
# Amino acid sequences for entries named in this document (tags omitted). Residues count along the entry.
# UniProt Q9ERS2: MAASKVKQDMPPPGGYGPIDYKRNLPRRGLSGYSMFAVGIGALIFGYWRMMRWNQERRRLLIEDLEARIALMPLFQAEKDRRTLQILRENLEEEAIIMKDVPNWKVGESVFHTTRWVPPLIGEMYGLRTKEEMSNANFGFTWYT
# UniProt P42227: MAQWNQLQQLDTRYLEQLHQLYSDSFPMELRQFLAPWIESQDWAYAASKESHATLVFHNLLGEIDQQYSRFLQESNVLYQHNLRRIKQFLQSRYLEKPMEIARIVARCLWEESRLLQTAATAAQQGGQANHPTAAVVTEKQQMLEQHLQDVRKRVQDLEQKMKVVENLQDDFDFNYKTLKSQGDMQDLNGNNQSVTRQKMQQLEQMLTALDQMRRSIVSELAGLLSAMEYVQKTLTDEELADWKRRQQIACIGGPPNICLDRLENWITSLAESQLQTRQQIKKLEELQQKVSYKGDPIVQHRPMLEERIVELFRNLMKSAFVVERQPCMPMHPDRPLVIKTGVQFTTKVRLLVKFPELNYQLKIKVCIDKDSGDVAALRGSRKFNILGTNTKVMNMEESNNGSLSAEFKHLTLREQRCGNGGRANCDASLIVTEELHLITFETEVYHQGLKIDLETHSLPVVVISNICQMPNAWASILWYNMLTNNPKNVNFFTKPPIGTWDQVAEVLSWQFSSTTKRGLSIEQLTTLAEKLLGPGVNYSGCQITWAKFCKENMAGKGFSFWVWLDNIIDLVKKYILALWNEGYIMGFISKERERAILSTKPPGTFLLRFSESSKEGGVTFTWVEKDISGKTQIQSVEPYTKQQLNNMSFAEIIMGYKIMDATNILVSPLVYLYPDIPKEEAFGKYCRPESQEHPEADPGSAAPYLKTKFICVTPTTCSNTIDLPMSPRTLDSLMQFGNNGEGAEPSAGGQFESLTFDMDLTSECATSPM
# UniProt Q9DC69, residues 36-377: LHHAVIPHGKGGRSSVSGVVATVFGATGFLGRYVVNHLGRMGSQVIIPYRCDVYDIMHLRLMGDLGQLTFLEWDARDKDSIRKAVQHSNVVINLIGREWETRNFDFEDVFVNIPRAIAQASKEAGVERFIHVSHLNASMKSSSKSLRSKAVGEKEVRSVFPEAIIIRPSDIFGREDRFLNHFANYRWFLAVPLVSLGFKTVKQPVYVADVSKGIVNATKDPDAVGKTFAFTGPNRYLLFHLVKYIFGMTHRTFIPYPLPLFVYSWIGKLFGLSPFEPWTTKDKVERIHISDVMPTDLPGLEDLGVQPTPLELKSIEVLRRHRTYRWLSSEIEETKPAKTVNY
# These are yes or no findings as the source states them, for the method shown. Binding seen in cells or lysates may run through a third protein. Some results given as binding are weak or reduced against the parent protein; the word gives no strength.
# Tests used:
# [1] = molecular target: NADH:ubiquinone oxidoreductase subunit A13 (mouse (endogenous in crude mitochondria)) (UniProt Q9ERS2); assay: co-IP; crude mitochondria solubilized with 2% digitonin (detergent:protein = 4:1), diluted five times with MRB; Protein A/G beads coated with STAT3, NDUFA13 or GFP antibody; overnight at 4°C; four washes with MRB; Western blot
# [2] = molecular target: Signal transducer and activator of transcription 3 (mouse (endogenous in crude mitochondria)) (UniProt P42227); assay: as above
substance,measurement,setting,value
NADH:ubiquinone oxidoreductase subunit A9 (from UniProt Q9DC69 36-377),binding,[1],binds
same,binding,[2],no binding
